This note sets out measurements from publication PMC11600285.

Sequences of proteins named here, by UniProt entry; tags and fusion partners are left off.
UniProt P51114: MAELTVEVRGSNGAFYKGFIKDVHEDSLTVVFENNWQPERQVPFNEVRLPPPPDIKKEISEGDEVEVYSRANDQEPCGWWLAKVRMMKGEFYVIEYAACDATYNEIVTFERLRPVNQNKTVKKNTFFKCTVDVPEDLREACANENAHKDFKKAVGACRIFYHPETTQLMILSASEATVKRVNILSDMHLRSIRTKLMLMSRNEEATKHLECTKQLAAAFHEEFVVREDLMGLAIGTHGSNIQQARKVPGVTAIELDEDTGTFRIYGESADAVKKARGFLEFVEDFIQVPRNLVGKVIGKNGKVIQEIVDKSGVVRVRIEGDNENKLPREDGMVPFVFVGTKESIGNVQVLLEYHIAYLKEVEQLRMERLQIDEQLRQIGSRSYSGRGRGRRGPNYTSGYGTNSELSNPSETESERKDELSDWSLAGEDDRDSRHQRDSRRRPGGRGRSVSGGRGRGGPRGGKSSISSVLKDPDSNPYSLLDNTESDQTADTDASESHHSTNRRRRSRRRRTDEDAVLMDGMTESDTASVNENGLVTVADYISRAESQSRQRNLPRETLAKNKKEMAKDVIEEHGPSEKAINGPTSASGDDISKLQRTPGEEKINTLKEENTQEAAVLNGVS

Results are given in words; binding and its absence hold for the method and conditions named. In cells and extracts the contact can be indirect. Some binding calls cover weakened binding; strength is not graded here. For part of these data: Sequences can lack the tags named with a protein.

The target of experiment [1] is T1, KIFC1-Flag (human) (UniProt Q9BW19).
T1 sequence: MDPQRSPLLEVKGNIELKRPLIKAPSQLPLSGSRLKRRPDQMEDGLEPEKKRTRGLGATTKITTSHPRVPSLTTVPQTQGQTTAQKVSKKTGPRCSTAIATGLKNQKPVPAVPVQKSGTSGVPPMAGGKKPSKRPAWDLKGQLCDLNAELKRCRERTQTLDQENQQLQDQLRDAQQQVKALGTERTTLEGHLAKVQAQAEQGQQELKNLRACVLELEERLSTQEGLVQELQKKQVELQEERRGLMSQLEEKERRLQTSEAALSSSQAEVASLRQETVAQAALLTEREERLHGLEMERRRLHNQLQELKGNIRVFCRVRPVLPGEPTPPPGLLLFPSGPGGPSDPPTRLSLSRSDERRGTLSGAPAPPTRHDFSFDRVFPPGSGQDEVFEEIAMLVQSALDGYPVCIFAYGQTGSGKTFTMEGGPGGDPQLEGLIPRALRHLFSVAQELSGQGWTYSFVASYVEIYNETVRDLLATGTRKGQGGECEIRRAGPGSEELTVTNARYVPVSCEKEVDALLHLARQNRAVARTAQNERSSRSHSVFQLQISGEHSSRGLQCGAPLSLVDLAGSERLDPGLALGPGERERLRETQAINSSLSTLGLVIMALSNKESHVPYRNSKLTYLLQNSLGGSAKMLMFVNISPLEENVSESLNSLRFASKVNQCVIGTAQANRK
Kind of experiment: co-IP; exogenous: lysates of KIFC1-Flag or FXR1-Flag-transfected SK-LMS-1 cells immunoprecipitated, Western blot (Figure 6B). On the technique in general: In western blotting, separated proteins are transferred to a membrane and probed.

Experiment [2] concerns the target T2, Kinesin family member C1 (KIFC1) (human (endogenous in human STS cell lines)) (UniProt Q9BW19).
T2 sequence: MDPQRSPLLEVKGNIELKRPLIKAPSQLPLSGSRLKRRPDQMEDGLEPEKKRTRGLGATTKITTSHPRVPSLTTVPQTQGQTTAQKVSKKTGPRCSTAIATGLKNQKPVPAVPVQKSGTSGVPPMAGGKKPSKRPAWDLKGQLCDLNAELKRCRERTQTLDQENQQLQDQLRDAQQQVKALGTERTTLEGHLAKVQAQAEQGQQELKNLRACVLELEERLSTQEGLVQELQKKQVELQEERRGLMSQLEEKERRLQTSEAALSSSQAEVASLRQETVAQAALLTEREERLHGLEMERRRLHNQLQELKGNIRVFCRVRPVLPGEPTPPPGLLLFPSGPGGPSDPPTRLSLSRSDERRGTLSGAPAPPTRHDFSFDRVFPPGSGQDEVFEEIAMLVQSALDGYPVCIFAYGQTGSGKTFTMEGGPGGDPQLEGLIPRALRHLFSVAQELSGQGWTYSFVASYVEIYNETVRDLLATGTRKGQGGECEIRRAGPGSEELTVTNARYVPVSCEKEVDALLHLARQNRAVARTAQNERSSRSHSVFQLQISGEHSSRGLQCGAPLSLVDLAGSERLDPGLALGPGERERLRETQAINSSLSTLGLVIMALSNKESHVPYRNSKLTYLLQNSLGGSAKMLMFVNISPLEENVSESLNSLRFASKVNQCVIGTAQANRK
Kind of experiment: co-IP; endogenous proteins; cells lysed at 4 °C in IP lysis buffer, supernatant incubated with 2 µg/mg specific primary antibody overnight at 4 °C, Western blot (Figure 6A).

Experiment [3] deals with FXR1-Flag (human) (UniProt P51114). The experiment is described as follows: co-IP; exogenous: lysates of KIFC1-Flag or FXR1-Flag-transfected SK-LMS-1 cells immunoprecipitated, Western blot (Figure 6B).

As to FXR1 (from UniProt P51114 1-621), the binding entry in experiment [1] and in experiment [2] was “binds” throughout.

B1: Kinesin family member C1 (KIFC1) (protein, UniProt Q9BW19 1-673)
chain: MDPQRSPLLEVKGNIELKRPLIKAPSQLPLSGSRLKRRPDQMEDGLEPEKKRTRGLGATTKITTSHPRVPSLTTVPQTQGQTTAQKVSKKTGPRCSTAIATGLKNQKPVPAVPVQKSGTSGVPPMAGGKKPSKRPAWDLKGQLCDLNAELKRCRERTQTLDQENQQLQDQLRDAQQQVKALGTERTTLEGHLAKVQAQAEQGQQELKNLRACVLELEERLSTQEGLVQELQKKQVELQEERRGLMSQLEEKERRLQTSEAALSSSQAEVASLRQETVAQAALLTEREERLHGLEMERRRLHNQLQELKGNIRVFCRVRPVLPGEPTPPPGLLLFPSGPGGPSDPPTRLSLSRSDERRGTLSGAPAPPTRHDFSFDRVFPPGSGQDEVFEEIAMLVQSALDGYPVCIFAYGQTGSGKTFTMEGGPGGDPQLEGLIPRALRHLFSVAQELSGQGWTYSFVASYVEIYNETVRDLLATGTRKGQGGECEIRRAGPGSEELTVTNARYVPVSCEKEVDALLHLARQNRAVARTAQNERSSRSHSVFQLQISGEHSSRGLQCGAPLSLVDLAGSERLDPGLALGPGERERLRETQAINSSLSTLGLVIMALSNKESHVPYRNSKLTYLLQNSLGGSAKMLMFVNISPLEENVSESLNSLRFASKVNQCVIGTAQANRK
Consider B1, for which the binding result in experiment [3] was “binds”.
